Experimental data from patent publication US12258554B2 (priority 2014, dated 2025).
Some results were stated once for a whole list of compounds, not compound by compound. At least one compound was matched to its structure with a doubt left. Where a SMILES comes first, the peptide text is derived from it. Bridges are numbered along the chain shown (N, C = ends). The star is where a group is joined. ξ: configuration not given here. Pentadecanoyl(3ξ-OH,15-Gua) = N=C(N)NCCCCCCCCCCCCC(O)CC(=O)*

System: Alternaria solani (ALTESO)
Experiment: Fungal growth assay in 96 well plates
Format: cell-based
Conditions: summary over ALTESO and BOTRCI; read-out: IC50 values, highest antifungal efficacy (text summary of Tab. 18)
Experimental: Fungal growth assays were performed in 96 well plates with spore suspension of the pathogen Botrytis cinerea (BOTRCI, in YBA [10 g Bacto peptone (Becton Dickinson 211677), 10 g yeast extract (Becton Dickinson 212750), 20 g sodium acetate, ad 1000 mL aqua bidest] or Alternaria solani (ALTESO, in YBG [10 g Bacto peptone (Becton Dickinson 211677), 10 g yeast extract (Becton Dickinson 212750), 20 g glycerine 99%, ad 1000 mL aqua bidest]). Fusaricidins and compounds 1A and 1B were dissolved and diluted in DMSO. Different concentrations ranging from 60 μM down to 0.3 μM were pipetted into the microtiter plate. An aqueous suspension of 10^4 spores/ml was added. The plates were incubated at about 18° C. Fungal growth was determined by measuring the optical density at 600 nm in a microplate reader 3 and 7 days after the inoculation of the spores and compared to the untreated control (DMSO). IC50 (concentration [μM] of the respective metabolite required for 50% inhibition of fungal growth) has been determined thereafter.

| Compound | IC50 [nM] |
| --- | --- |
| CCC(C)C1NC(=O)C(NC(=O)CC(O)CCCCCCCCCCCCNC(=N)N)C(C)OC(=O)C(C)NC(=O)C(CCC(N)=O)NC(=O)C(C(C)O)NC(=O)C(Cc2ccc(O)cc2)NC1=O (centres unmarked) [Compound 1B] ({Pentadecanoyl(3ξ-OH,15-Gua)}-TIYTQA; ester 1-C; configuration not given here) | 400 to 600 |
| CCC(C)C1NC(=O)C(NC(=O)CC(O)CCCCCCCCCCCCNC(=N)N)C(C)OC(=O)C(C)NC(=O)C(CC(N)=O)NC(=O)C(C(C)O)NC(=O)C(Cc2ccc(O)cc2)NC1=O (centres unmarked) [Compound 1A] ({Pentadecanoyl(3ξ-OH,15-Gua)}-TIYTNA; ester 1-C; configuration not given here) | 400 to 600 |
